Reference: patent US7700636B2, “Thiadiazole compounds and methods of use” (Amgen Inc., priority 2004, dated 2010)
Some results were stated once for a whole list of compounds, not compound by compound.

Chains of the proteins cited; added tags and fusions are not shown. Residues count along the entry.
UniProt P31749, 118-480 limits assumed: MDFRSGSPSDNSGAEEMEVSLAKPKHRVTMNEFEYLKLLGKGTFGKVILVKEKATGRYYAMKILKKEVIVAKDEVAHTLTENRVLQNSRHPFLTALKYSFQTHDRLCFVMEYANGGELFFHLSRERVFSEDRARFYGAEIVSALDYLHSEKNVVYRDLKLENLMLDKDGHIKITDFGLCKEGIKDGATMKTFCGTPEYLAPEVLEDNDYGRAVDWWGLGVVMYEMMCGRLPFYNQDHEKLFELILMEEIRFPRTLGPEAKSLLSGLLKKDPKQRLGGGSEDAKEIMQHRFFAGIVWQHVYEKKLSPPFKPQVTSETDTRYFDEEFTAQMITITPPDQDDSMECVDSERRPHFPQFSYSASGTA

Tests used:
PKB = PKB activity in cells: phosphorylation of PKB substrates FKHRL1, GSK3a/b and Tuberin by immunoassay in MDA-MB-468; format: cell-based; conditions: PTEN null human breast tumor cell line MDA-MB-468; phospho-FKHRL1, GSK3a/b, Tuberin; read-out: PKB kinase activity IC50 in cells
PKBα = biological target: T1, PKBα (Homo sapiens, UniProt P31749); experiment: PKB kinase assay (P33-labeled ATP, peptide substrate, filter plate); format: biochemical; conditions: full length PKBα and PKBα kinase domain with pleckstrin domain (amino acids 1-117) deleted
T1 construct: fused on or other part: Probably a His tag on the vendor's proteins

Row | Structure (SMILES) | IC50 (PKB) [µM] | IC50 (PKBα) [µM]
1 | Cc1n[nH]c2ccc(-c3nnc(NC[C@@H](N)C4Cc5ccccc5C4)s3)cc12 [Example 49, N-((S)-2-amino-2-(2,3-dihydro-1H-inden-2-yl)ethyl)-5-(3-methyl-1H-indazol-5-yl)-1,3,4-thiadiazol-2-amine] | < 10 | < 10
2 | N[C@H](CNc1nnc(-c2ccc3[nH]ncc3c2)s1)Cc1ccc2ccccc2c1 [Example 74, N-((S)-2-amino-3-(naphthalen-2-yl)propyl)-5-(1H-indazol-5-yl)-1,3,4-thiadiazol-2-amine] | < 10 | < 10
3 | Cc1c(-c2nnc(NC[C@@H](N)Cc3ccc(Cl)cc3)s2)ccc2[nH]ncc12 [Example 115, N-((S)-2-amino-3-(4-chlorophenyl)propyl)-5-(4-methyl-1H-indazol-5-yl)-1,3,4-thiadiazol-2-amine] | < 10 | < 10
4 | N[C@H](CNc1nnc(-c2ccc3[nH]ncc3c2)s1)Cc1ccccn1 [Example 158, N-((S)-2-amino-3-(pyridin-2-yl)propyl)-5-(1H-indazol-5-yl)-1,3,4-thiadiazol-2-amine] | < 10 | < 10
5 | Nc1nnc(-c2cc(Cl)c3[nH]ncc3c2)s1 [Example 106, 5-(7-chloro-1H-indazol-5-yl)-1,3,4-thiadiazol-2-amine] | < 10 | < 10
6 | C[C@@H](c1ccc(C(F)(F)F)cc1)[C@H](N)CNc1nnc(-c2ccc3cnccc3c2)s1 [Example 176, N-((2S,3S)-2-amino-3-(4-(trifluoromethyl)phenyl)butyl)-5-(isoquinolin-6-yl)-1,3,4-thiadiazol-2-amine] | < 10 | < 10
7 | CCOc1ccc(C[C@H](N)CNc2nnc(-c3ccc4[nH]nc(C)c4c3)s2)cc1 [Example 51, N-((S)-2-amino-3-(4-ethoxyphenyl)propyl)-5-(3-methyl-1H-indazol-5-yl)-1,3,4-thiadiazol-2-amine] | < 10 | < 10
8 | N[C@H](CNc1nnc(-c2ccc3cnccc3c2)s1)Cc1ccccc1 [Example 2, N-((S)-2-amino-3-phenylpropyl)-5-(isoquinolin-6-yl)-1,3,4-thiadiazol-2-amine] | < 10 | < 10
9 | N[C@H](CNc1nnc(-c2ccc3cnccc3c2)s1)Cc1cccc(F)c1 [Example 153, N-((S)-2-amino-3-(3-fluorophenyl)propyl)-5-(isoquinolin-6-yl)-1,3,4-thiadiazol-2-amine] | < 10 | < 10
10 | Cc1n[nH]c2ccc(-c3nnc(NC[C@@H](N)Cc4cccc(F)c4)s3)cc12 [Example 15, (S)-3-(3-Fluoro-phenyl)-N-[5-(3-methyl-1H-indazol-5-yl)-[1,3,4]thiadiazol-2-yl]-propane-1,2-diamine] | < 10 | < 10
11 | CCc1n[nH]c2ccc(-c3nnc(NC[C@@H](N)Cc4ccccc4)s3)cc12 [Example 126, N-((S)-2-amino-3-phenylpropyl)-5-(3-ethyl-1H-indazol-5-yl)-1,3,4-thiadiazol-2-amine] | < 10 | < 10
12 | N[C@H](CNc1nnc(-c2cc3cn[nH]c3cn2)s1)Cc1ccc(Br)cc1 [Example 110, N-((S)-2-amino-3-(4-bromophenyl)propyl)-5-(1H-pyrazolo[3,4-c]pyridin-5-yl)-1,3,4-thiadiazol-2-amine] | < 10 | < 10
13 | CN[C@H](CNc1nnc(-c2ccc3[nH]ncc3c2)s1)Cc1ccc(C(F)(F)F)cc1 [Example 134, 5-(1H-indazol-5-yl)-N-((S)-2-(methylamino)-3-(4-(trifluoromethyl)phenyl)propyl)-1,3,4-thiadiazol-2-amine] | < 10 | < 10
14 | N[C@H](CNc1nnc(-c2ccc3[nH]ncc3c2)s1)Cc1ccc(F)c(F)c1 [Example 80, N-((S)-2-amino-3-(3,4-difluorophenyl)propyl)-5-(1H-indazol-5-yl)-1,3,4-thiadiazol-2-amine] | < 10 | < 10

Other lines, results leading:

Row | IC50 (PKB) [µM] | IC50 (PKBα) [µM] | Structure (SMILES)
15 | < 10 | < 10 | Cc1cc(-c2nnc(NC[C@@H](N)Cc3ccc(C(F)(F)F)cc3)s2)cc2cn[nH]c12 [Example 103, N-((S)-2-amino-3-(4-(trifluoromethyl)phenyl)propyl)-5-(7-methyl-1H-indazol-5-yl)-1,3,4-thiadiazol-2-amine]
16 | < 10 | < 10 | Cc1n[nH]c2ccc(-c3nnc(NC[C@@H](N)Cc4cccc(C(F)(F)F)c4)s3)cc12 [Example 37, (S)-N-[5-(3-Methyl-1H-indazol-5-yl)-[1,3,4]thiadiazol-2-yl]-3-(3-trifluoromethyl-phenyl)-propane-1,2-diamine]
17 | < 10 | < 10 | Cc1n[nH]c2ccc(-c3nnc(NCC(Cc4cccc(C(F)(F)F)c4)NCC4CCCCC4)s3)cc12 (stereo not shown) [Example 142, N-(cyclohexylmethyl)-1-(5-(3-methyl-1H-indazol-5-yl)-1,3,4-thiadiazol-2-ylamino)-3-(3-(trifluoromethyl)phenyl)propan-2-aminium 2,2,2-trifluoroacetate]
18 | < 10 | < 10 | Cc1n[nH]c2ccc(-c3nnc(NC[C@H]4NCC[C@@H]4c4ccccc4)s3)cc12 [Example 46, 5-(3-methyl-1H-indazol-5-yl)-N-(((2S,3R)-3-phenylpyrrolidin-2-yl)methyl)-1,3,4-thiadiazol-2-amine]
19 | < 10 | < 10 | Cc1n[nH]c2ccc(-c3nnc(NC[C@@H](N)Cc4ccc(-c5ccccc5)cc4)s3)cc12 [Example 57, N-((S)-2-amino-3-((4-phenyl)propyl)propyl)-5-(3-methyl-1H-indazol-5-yl)-1,3,4-thiadiazol-2-amine]
20 | < 10 | < 10 | Cc1n[nH]c2ccc(-c3nnc(NCC(Cc4cccc(C(F)(F)F)c4)NCc4ccc(O)cc4)s3)cc12 (stereo not shown) [Example 140, N-(4-hydroxybenzyl)-1-(5-(3-methyl-1H-indazol-5-yl)-1,3,4-thiadiazol-2-ylamino)-3-(3-(trifluoromethyl)phenyl)propan-2-aminium 2,2,2-trifluoroacetate]
21 | < 10 | < 10 | Cc1cc2[nH]ncc2cc1-c1nnc(NC[C@@H](N)Cc2ccc(Br)cc2)s1 [Example 100, N-((S)-2-amino-3-(4-bromophenyl)propyl)-5-(6-methyl-1H-indazol-5-yl)-1,3,4-thiadiazol-2-amine]
22 | < 10 | < 10 | Cc1n[nH]c2ccc(-c3nnc(NCC(N)C4CCc5ccccc5C4)s3)cc12 (stereo not shown) [Example 12, N^2-[5-(3-Methyl-1H-indazol-5-yl)-[1,3,4]thiadiazol-2-yl]-1-(1,2,3,4-tetrahydro-naphthalen-2-yl)-ethane-1,2-diamine]
23 | < 10 | < 10 | CN(CCNc1nnc(-c2ccc3cnccc3c2)s1)Cc1ccc(C(F)(F)F)cc1 [Example 175, N-(2-((4-(trifluoromethyl)benzyl)(methyl)amino)ethyl)-5-(isoquinolin-6-yl)-1,3,4-thiadiazol-2-amine]
